“And” between values parts separate entries of the source, which are not always exact repeats. Equal values may be shown once. The list shows a part of the results. Each value is one well over the wells without odorant, computed here; the data are noisy.

Test in all cases: odorant receptor activation (CRE luciferase / Renilla) (fold of no-odor wells); higher = more activation
Details in all cases: 100 µM

The test system of test [1] is OR5AN1 clone 1245.
Test [2] has as its system OR5AP2 clone 1209.
Test [3] deals with OR5AR1 clone 1207.
Test [4] deals with OR5AS1 clone 1135.
Test [5] deals with OR5AU1 L66F/I248V clone 1421.
Test [6] has as its system OR5AU1 clone 1344.
Test [7] relates to OR5B17 clone 1220.
The subject of test [8] is OR5B2 M200T clone 1246.
Test [9] deals with OR5B21 I279F clone 1482.
In test [10] the test system is OR5B3 clone 1138.
The subject of test [11] is OR5C1 clone 1425.
Test [12] has as its system OR5D14 clone 1230.
Test [13] concerns OR5D18 N136D clone 1203.
The subject of test [14] is OR5F1 S294N clone 1148.
Test [15] has as its system OR5H1 I153L/T181I clone 1473.
Test [16] concerns OR5H1 clone 1471.
For test [17], the system named is OR5H14 G64R/Y189C clone 1472.
Test [18] deals with OR5H2 E11Q/I225V/I281V clone 1466.
Test [19] deals with OR5H2 clone 1055.
In test [20] the test system is OR5H6 clone 1056.

`COC(=O)c1ccccc1O` [methyl salicylate]: the odorant receptor activation in test [1] came out at 0.8; in test [2] it was 1.29; in [3], 1.27; in [4], 0.979; in test [5] it was 0.931; in test [6], 1.05. The odorant receptor activation is 0.692 in test [7]; 0.9 in test [8]; 1.25 in [9]; 0.969 in test [10]; 0.72 in test [11]; 0.822 in [12]. The odorant receptor activation amounted to 0.899 in [13]; 0.783 in test [14]; 0.889 in test [15]; 1.04 in test [16]; 0.928 in test [17]; 0.981 in test [18]. Besides, the odorant receptor activation was determined as 1.11 in test [19] and 1.01 in test [20].
`CC1CCC(C(C)C)C(O)C1` (single isomer, unassigned; (+)) [(+)-menthol]: the odorant receptor activation in [1] came out at 0.76; in test [2] it was 0.855; in [3], 1.36; in test [4], 1.37; in test [5], 1.14; in test [6], 0.926. The odorant receptor activation was 1.21 in [7]; 0.908 in test [8]; 1.04 in test [9]; 1.32 in [10]; 0.847 in test [11]; 1.63 in [12]. Moreover, the odorant receptor activation came to 0.899 in [13]; 1.38 in test [14]; 0.898 in [15]; 1.18 in [16]; 0.998 in test [17]; 1.11 in test [18]. Besides, the odorant receptor activation is 2.9 in test [19] and 3.03 in [20].
For `C=CCc1ccc(OC(C)=O)c(OC)c1` [eugenol acetate], the odorant receptor activation was determined as 1.57 in test [1]; 1.7 in test [2]; 1.5 in test [3]; 2.41 in test [4]; 2.07 in test [5]; 1.23 in test [6]. The odorant receptor activation in test [7] stood at 1.31; in test [8], 1.64; in test [9], 1.74; in [10], 1.85; in [11], 1.21; in [12], 1.77. The odorant receptor activation in [13] amounted to 2.06; in test [14] it was 2.1; in test [15] it was 1.5; in test [16], 2.05; in test [17], 1.85; in test [18], 1.53. Moreover, the odorant receptor activation in [19] was found to be 2.29; in [20], 1.76.
As to `CC(C)CCC(=O)O` [4-methylvaleric acid], the odorant receptor activation is 1.03 in [1]; 0.789 in test [2]; 1.01 in [3]; 1.1 in test [4]; 1.02 in [5]; 0.976 in test [6]. For the same compound, the odorant receptor activation in test [7] is 1.33; in test [8], 1.22; in [9], 0.889; in test [10], 1.41; in test [11] it was 1.06; in test [12], 1.58. Further, the odorant receptor activation in [13] came to 0.963; in test [14] it was 1.16; in test [15] it was 1.01; in test [16], 0.971; in test [17] it was 1.07; in test [18], 1.09. Besides, the odorant receptor activation in test [19] worked out at 1.56; in test [20], 1.71.
With `CC=Cc1ccc(O)c(OC)c1` [isoeugenol], the odorant receptor activation in test [1] was 1.22 and 3.11; in test [2], 1.23; in [3], 1.85; in [4], 0.982; in test [5], 1.45; in test [6] it was 1.57 and 1.17. For the same compound, the odorant receptor activation in [7] was 0.828; in [8], 0.99 and 2; in test [9], 1.04 and 2.26; in [10], 1.42; in test [11], 1.25; in test [12] it was 1.21. Further, the odorant receptor activation in test [13] is 1.03; in [14], 1.36; in test [15], 0.954 and 2.2; in [16], 0.975 and 1.87; in test [17], 0.913 and 1.92; in [18] it was 1.09 and 2.88. The odorant receptor activation in test [19] worked out at 1.02; in [20], 2.22.
In the case of `C=CCSCC=C` [diallyl sulfide], the odorant receptor activation came to 1.01 in [1]; 1.02 in test [2]; 1.1 in test [3]; 1.13 in test [4]; 1.37 in test [5]; 0.854 in test [6]. Further, the odorant receptor activation in test [7] was 0.839; in test [8], 0.872; in [9], 1.36; in test [10] it was 0.864; in test [11], 0.837; in test [12], 1.11. Moreover, the odorant receptor activation was 1.09 in test [13]; 1.24 in [14]; 1.02 in [15]; 1.23 in test [16]; 1.25 in test [17]; 1.19 in test [18]. The odorant receptor activation in test [19] was 1.02; in test [20], 0.943.
Turning to `CCCCCCCOC(C)=O` [heptyl acetate], the odorant receptor activation in [1] is 0.69 and 2.03; in test [2] it was 0.716; in test [3], 1.15; in test [4], 0.99; in [5], 1.06; in test [6], 0.827 and 0.862. In addition, the odorant receptor activation is 0.81 in test [7]; 1.33 and 1.2 in test [8]; 0.975 and 1.15 in test [9]; 1 in test [10]; 1.19 in test [11]; 0.996 in [12]. The odorant receptor activation is 1.01 in test [13]; 1.09 in [14]; 0.839 and 1.26 in test [15]; 0.667 and 1.08 in [16]; 0.94 and 1.1 in test [17]; 0.796 and 1.4 in test [18]. Moreover, the figures for the odorant receptor activation in test [19] and in [20] were 0.645 and 1.48, respectively.
In the case of `CCCCO` [1-butanol], the odorant receptor activation in [1] is 0.843; in test [2] it was 0.666; in [3], 1.13; in test [4], 0.973; in test [5] it was 1.2; in test [6] it was 1. For the same compound, the odorant receptor activation in test [7] was 1.58; in test [8], 1.3; in test [9], 1.24; in test [10], 1.53; in test [11] it was 0.903; in test [12] it was 1.15. Moreover, the odorant receptor activation in test [13] is 0.701; in test [14], 1.3; in test [15], 1.1; in [16], 1.17; in test [17] it was 1.07; in test [18] it was 1.21. In addition, the odorant receptor activation in test [19] worked out at 3.14; in [20], 3.57.
On to `CC1=CCC(C(C)(C)O)CC1` (stereo not given) [terpineol], for which the odorant receptor activation was determined as 0.876 in test [1]; 1.29 in [2]; 1.35 in test [3]; 1.23 in test [4]; 1.03 in test [5]; 0.87 in test [6]. The odorant receptor activation in [7] is 1.02; in [8] it was 0.952; in test [9] it was 0.797; in test [10], 1.21; in test [11], 1.26; in [12], 1.22. In addition, the odorant receptor activation was found to be 1.11 in [13]; 1.21 in [14]; 0.811 in test [15]; 0.876 in test [16]; 0.69 in test [17]; 0.713 in test [18]. Also, the results for the odorant receptor activation in test [19] and in test [20] were 1.29 and 1, respectively.
Regarding `CCCCCCCCCC=O` [decyl aldehyde], the odorant receptor activation in test [1] is 1.2; in test [2], 1.2; in [3], 1.37; in test [4] it was 1.24; in test [5], 1.56; in test [6], 1.02. In addition, the odorant receptor activation in test [7] was 1.26; in test [8], 1.26; in test [9], 1.09; in test [10], 1.18; in [11], 1.17; in test [12] it was 1.28. In addition, the odorant receptor activation in [13] came out at 1.12; in [14], 1.16; in test [15] it was 0.829; in [16], 1.38; in [17], 1.34; in [18], 1.36. In addition, the odorant receptor activation was determined as 1.18 in test [19] and 1.24 in test [20].
With `CCCCCCOC(=O)CCC` [hexyl butyrate], the odorant receptor activation in test [1] was 1.19 and 1.1; in [2] it was 1.06; in test [3], 1.17; in test [4], 1.02; in test [5] it was 0.955; in test [6] it was 1.34 and 0.931. In addition, the odorant receptor activation is 1.2 in test [7]; 1.08 and 0.816 in test [8]; 1.11 and 0.901 in test [9]; 1.07 in test [10]; 1.05 in [11]; 1.27 in test [12]. For the same compound, the odorant receptor activation in [13] is 1.24; in [14], 1.37; in [15], 1.09 and 1.07; in [16], 0.762 and 1.18; in test [17] it was 1.04 and 0.906; in test [18], 1.1 and 0.839. For the same compound, the odorant receptor activation was 1.1 in test [19] and 0.831 in [20].
Take `CC12CCC(CC1)C(C)(C)O2` [cineole]: the odorant receptor activation in [1] was 0.89; in [2], 0.841; in [3], 0.856; in [4], 0.87; in [5], 0.365; in test [6], 0.837. In addition, the odorant receptor activation in [7] is 0.931; in [8] it was 1.06; in test [9], 0.874; in test [10], 0.989; in test [11], 0.437; in [12] it was 0.98. The odorant receptor activation in test [13] turned out to be 0.798; in test [14], 0.874; in [15], 0.816; in test [16], 1.14; in test [17], 0.964; in [18], 0.93. The odorant receptor activation in [19] came out at 1.26; in test [20], 0.931.
As for `CCCC(=O)O` [butyric acid], the odorant receptor activation in test [1] was 1.03; in [2], 0.909; in test [3], 1.09; in test [4] it was 1.37; in test [5], 0.363; in test [6] it was 0.863. The odorant receptor activation in [7] came out at 1.1; in test [8], 1.26; in [9] it was 1.1; in test [10] it was 1.16; in test [11] it was 0.439; in test [12] it was 1.32. The odorant receptor activation worked out at 0.912 in [13]; 1.04 in test [14]; 0.884 in test [15]; 1.35 in [16]; 1.12 in test [17]; 1.06 in test [18]. The odorant receptor activation worked out at 1.55 in test [19] and 1.16 in [20].
